Assay results as given in US20130203680A1 (ENDOCYTE, INC., priority 2010, published 2013).

Key:
[1] = general procedure: Fmoc solid-phase peptide synthesis; H-Cys(4-methoxytrityl)-2-chlorotrityl-Resin (loading 0.56 mmol/g); Fmoc-AA-Wang resin in general scheme; PyBOP, DIPEA; conditions: conjugation step, over 2 steps from everolimus
[2] = general procedure: Fmoc solid-phase peptide synthesis; H-Cys(4-methoxytrityl)-2-chlorotrityl-Resin; PyBOP, DIPEA; conditions: whole synthesis, scale 0.1 mmol

Substance	conjugation yield [1] [% yield]	isolated mass [2]	isolated yield [2] [%]
PEPTIDE1{[Pte].[gGlu].[SacGlu].E.[SacGlu].E.[SacGlu].C}|CHEM1{[SEtOCO-Everolimus]}$PEPTIDE1,CHEM1,8:R3-1:R1$$$V2.0	50		
Tetra-Saccharoglutamate-Bis-aGlu-Folate Spacer EC0491		˜100 mg	51

For part of these data: Strings that start with PEPTIDE1 are HELM notation: dots part the residues, brackets hold end groups and non-standard residues.
